The values that follow come from patent publication US20260242353A1, “HETEROARYL DERIVATIVES AS DDRs INHIBITORS” (CHIESI FARMACEUTICI S.P.A., priority 2022, published 2026).

Sequences of proteins named here, by UniProt entry; tags and fusion partners are left off. Residues count along the entry.
UniProt Q08345, 19-913 limits assumed: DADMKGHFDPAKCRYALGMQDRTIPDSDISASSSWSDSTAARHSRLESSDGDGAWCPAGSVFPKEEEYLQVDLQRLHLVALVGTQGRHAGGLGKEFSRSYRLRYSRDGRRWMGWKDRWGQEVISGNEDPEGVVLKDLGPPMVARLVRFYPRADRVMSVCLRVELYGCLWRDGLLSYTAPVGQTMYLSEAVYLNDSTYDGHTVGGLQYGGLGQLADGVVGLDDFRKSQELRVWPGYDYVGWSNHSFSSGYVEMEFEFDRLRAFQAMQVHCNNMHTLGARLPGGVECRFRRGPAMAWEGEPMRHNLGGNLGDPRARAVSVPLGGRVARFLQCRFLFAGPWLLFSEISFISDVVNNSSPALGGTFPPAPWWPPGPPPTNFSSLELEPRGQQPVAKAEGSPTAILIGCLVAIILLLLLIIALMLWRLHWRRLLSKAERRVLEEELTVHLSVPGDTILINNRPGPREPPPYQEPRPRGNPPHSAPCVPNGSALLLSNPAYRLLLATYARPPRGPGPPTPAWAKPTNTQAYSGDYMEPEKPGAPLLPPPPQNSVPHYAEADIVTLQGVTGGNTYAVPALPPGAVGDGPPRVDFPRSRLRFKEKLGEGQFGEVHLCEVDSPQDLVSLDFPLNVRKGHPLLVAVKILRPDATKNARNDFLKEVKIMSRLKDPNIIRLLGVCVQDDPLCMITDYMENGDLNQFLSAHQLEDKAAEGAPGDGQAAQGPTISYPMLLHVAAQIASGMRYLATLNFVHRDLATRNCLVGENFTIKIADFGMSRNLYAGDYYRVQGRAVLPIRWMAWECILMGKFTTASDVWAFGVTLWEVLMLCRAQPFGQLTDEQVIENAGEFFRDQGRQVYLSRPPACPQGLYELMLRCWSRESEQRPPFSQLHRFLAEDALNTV
UniProt Q16832, 22-855 limits assumed: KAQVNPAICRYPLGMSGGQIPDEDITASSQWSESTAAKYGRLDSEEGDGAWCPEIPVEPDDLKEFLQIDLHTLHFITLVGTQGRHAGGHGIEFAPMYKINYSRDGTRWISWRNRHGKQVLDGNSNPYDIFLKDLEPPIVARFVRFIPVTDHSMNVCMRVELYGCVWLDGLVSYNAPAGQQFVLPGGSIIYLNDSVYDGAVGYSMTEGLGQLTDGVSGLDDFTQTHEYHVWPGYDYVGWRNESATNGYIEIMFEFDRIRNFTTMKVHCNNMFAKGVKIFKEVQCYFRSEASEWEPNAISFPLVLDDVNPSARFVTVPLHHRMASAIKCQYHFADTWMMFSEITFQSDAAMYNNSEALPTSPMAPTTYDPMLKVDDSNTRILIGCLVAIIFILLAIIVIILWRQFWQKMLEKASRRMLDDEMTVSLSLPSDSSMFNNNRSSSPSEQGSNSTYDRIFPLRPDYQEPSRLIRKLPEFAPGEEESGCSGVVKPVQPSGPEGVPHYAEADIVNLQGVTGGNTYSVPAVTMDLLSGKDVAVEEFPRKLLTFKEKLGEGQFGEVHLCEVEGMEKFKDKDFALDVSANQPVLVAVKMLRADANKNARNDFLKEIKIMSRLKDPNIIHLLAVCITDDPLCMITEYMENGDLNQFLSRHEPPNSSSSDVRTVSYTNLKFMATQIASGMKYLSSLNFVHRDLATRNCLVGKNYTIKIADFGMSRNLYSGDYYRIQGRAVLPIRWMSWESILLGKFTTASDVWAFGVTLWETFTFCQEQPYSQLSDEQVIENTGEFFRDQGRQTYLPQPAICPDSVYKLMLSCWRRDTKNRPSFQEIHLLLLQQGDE

In test [1] the target is DDR1 (Homo sapiens, UniProt Q08345). In words: LanthaScreen Europium Kinase Binding assay, DDR1. The note with it: read-out: Ki DDR1; 5 nM DDR1, 20 nM Kinase Tracer 178, 1 h at rt; Ki from IC50 by Cheng-Prusoff. How it is done:
(§1) DDR1 and DDR2 binding assays were performed using Life Technologies LanthaScreen™ Europium Kinase Binding assay. The compounds were incubated with 5 nM DDR1 (Carna Biosciences) or 5 nM DDR2 (Life Technologies) for 1 h at rt in white 384-well OptiPlate (PerkinElmer), containing 20 nM or 10 nM Kinase Tracer 178 respectively and 2 nM Europium labelled anti-GST antibody (Life Technologies) in assay buffer (50 mM HEPES pH 7.5, 10 mM MgCI2, 1 mM EGTA and 0.01% BRIJ35). The ratio of fluorescence emission 665 nm/615 nm after excitation at 340 nm was obtained using the Tecan Spark 20M plate reader. IC50 values were determined in GraphPad Prism 7.0 software, using 4 parameter model: log(inhibitor) vs. response. IC50 values were converted in Ki using the Cheng-Prusoff equation (Ki=IC50/(1+[Tracer]/Kd).
In general terms: Time-resolved FRET reads energy transfer from a long-lived donor to a nearby acceptor.

For test [2], the target named is DDR2 (Homo sapiens, UniProt Q16832). In words: LanthaScreen Europium Kinase Binding assay, DDR2. Particulars: read-out: Ki DDR2; 5 nM DDR2, 10 nM Kinase Tracer 178, 1 h at rt; Ki from IC50 by Cheng-Prusoff. As to the method: as §1

Structures were worked out from names or drawings and are uncertain.

For `Cc1ccc(C(=O)Nc2cncc(OC(F)(F)F)c2)cc1[C@@H]1CCN(c2cnn3cccnc23)C1`, the Ki in test [1] is less than 5 nM; in test [2] it was 5 to 25 nM.
For the compound `Cc1ccc(C(=O)Nc2cncc(C(F)(F)F)c2)cc1[C@@H]1CCN(c2nccnc2N)C1`, the Ki in test [1] and in test [2] was less than 5 nM each time.
On to `Cc1ccc(C(=O)Nc2cncc(C(F)(F)F)c2)cc1[C@@H]1CCN(c2cncnc2)C1`, for which the Ki in test [1] and in test [2] was less than 5 nM each time.
Take `Cc1ccc(C(=O)Nc2cncc(C(F)(F)F)c2)cc1[C@@H]1CCN(c2cnc3cnc(N4CCN(C)CC4)cn23)C1`: the values for the inhibition constant (Ki) in test [1] and in test [2] were less than 5 nM and 5 to 25 nM, respectively.

As a reminder, the Ki is the equilibrium dissociation constant of an inhibitor or competing ligand from its target.
